Measurements taken from publication PMC7052238.
These are yes or no findings as the source states them, for the method shown. In cells and extracts the contact can be indirect. Some entries that bind do so weakly or less than the wild type.

By UniProt entry, the sequences of proteins in these tests, tags left out. Where a name states a change or a piece, a line headed by the entry shows the natural chain unless it says otherwise.
UniProt P15313: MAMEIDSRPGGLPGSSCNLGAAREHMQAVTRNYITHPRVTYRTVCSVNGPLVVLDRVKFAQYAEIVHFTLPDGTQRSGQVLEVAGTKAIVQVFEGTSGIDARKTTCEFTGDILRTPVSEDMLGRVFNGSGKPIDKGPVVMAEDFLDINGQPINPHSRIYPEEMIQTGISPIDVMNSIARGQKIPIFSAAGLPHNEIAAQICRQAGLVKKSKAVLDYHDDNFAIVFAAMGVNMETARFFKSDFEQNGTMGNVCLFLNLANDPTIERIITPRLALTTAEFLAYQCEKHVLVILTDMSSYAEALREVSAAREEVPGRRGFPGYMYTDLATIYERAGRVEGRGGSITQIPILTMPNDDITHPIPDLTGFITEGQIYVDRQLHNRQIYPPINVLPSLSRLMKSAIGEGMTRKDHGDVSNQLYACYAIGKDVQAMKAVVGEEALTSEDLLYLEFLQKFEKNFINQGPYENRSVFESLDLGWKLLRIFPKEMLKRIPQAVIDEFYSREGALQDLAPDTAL
UniProt Q9HBG4: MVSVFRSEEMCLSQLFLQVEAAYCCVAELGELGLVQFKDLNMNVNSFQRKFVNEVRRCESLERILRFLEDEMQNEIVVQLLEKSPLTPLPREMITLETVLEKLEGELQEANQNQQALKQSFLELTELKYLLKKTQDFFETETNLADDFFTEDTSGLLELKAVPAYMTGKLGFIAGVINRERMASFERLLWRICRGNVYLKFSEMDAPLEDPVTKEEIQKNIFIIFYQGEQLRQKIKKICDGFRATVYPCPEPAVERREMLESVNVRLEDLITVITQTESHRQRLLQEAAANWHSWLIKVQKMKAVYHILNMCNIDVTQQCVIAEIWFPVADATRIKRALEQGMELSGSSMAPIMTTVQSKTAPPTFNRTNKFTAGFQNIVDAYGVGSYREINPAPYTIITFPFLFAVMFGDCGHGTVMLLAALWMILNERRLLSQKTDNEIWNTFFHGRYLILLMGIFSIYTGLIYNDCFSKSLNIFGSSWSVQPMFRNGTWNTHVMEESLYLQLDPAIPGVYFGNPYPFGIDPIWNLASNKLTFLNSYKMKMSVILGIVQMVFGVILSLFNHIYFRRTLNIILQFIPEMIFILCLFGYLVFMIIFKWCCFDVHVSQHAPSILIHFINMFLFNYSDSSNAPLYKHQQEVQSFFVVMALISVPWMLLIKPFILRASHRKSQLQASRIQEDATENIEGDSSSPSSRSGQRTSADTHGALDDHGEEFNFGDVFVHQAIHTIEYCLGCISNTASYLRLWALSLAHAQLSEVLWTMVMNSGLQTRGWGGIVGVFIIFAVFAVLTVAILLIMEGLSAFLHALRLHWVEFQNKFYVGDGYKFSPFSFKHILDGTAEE

Target: HA-tagged ATP6V1B1 (B1 subunit of V-ATPase) (human) (UniProt P15313)
Assay: co-IP; HEK293T cells transfected with Flag-A4 or Flag-A4-mut and HA-B1, 48 h; whole-cell lysate immunoprecipitated with anti-Flag or anti-HA antibody and protein A/G magnetic beads overnight at 4 °C (forward and reverse); blots with anti-Flag and anti-HA

Substance	binding
Flag-tagged ATP6V0A4/p.S544L mutant-type (a4 subunit of V-ATPase) (from UniProt Q9HBG4 1-840)	no binding
Flag-tagged ATP6V0A4-wild type (a4 subunit of V-ATPase) (from UniProt Q9HBG4 1-840)	binds
